PubChem BioAssay AID652243 – Drosophila RNAi Screening Center, 2013
In all, the deposit lists about 24,000 reagents; this is a random part of those that have a named target and a result. Over the whole deposit, 246 (1%) got an active call. 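Plates not normalised; calls are printed but the firefly/Renilla ratio behind them is not deposited; fold cut for lowering reported inconsistently.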 Raw values vary from plate to plate and are shown uncorrected. A number with no mark means an inactive call. Not stated in the record: the amount of reagent.

Assay: 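Fly genes required for human androgen receptor driven transcription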 (primary screen)
Cell system: Drosophila S2R+ cells
Reagents: long dsRNA against Drosophila genes
Timing: 72 h (48 h, then 24 h hormone)
Conditions: synthetic androgen R1881 at 10 nM for 24 h
Measurement: 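Firefly light from an androgen-responsive reporter and Renilla control light per well, raw and unnormalised, for each of two replicates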
Direction: firefly reporter light: higher = more light from androgen-responsive reporter; Renilla control light: higher = more constitutive control signal (cell number, transfection)
Hit rule: 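Hit when the log firefly-to-Renilla ratio dropped or increased by a fixed fold versus the mean of GFP or LacZ controls across duplicate plates; lowering cut given as 1.5 and as 3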
Calls: active = hit: reporter lowered or raised; inactive = no hit

no.	gene	amplicon	firefly reporter light, replicate 1	firefly reporter light, replicate 2	Renilla control light, replicate 1	Renilla control light, replicate 2
1	Sirt7	DRSC14294	61143	76905	6.66e5	4.19e5
2	Sirt7	DRSC26219	4.75e5	4.41e5	8.17e5	8.30e5
3	CG32655	DRSC18925	7.96e5	7.41e5	1.37e6	5.51e5
4	ana	DRSC07579	1.36e6	1.04e6	1.16e6	9.30e5
5	ana	DRSC24236	6.83e5	7.50e5	7.49e5	7.13e5
6	ana	DRSC38967	8.41e5	7.12e5	2.34e6	1.83e6
7	Cyp313a5	DRSC16628	1.61e5	1.92e5	2.87e6	2.80e6
8	twi	DRSC23185	4.27e5	4.02e5	8.46e5	7.31e5
9	twi	DRSC26056	3.78e5	3.83e5	7.74e5	8.52e5

Next part (2 carried over from the part before).
no.	gene	amplicon	firefly reporter light, replicate 1	firefly reporter light, replicate 2	Renilla control light, replicate 1	Renilla control light, replicate 2
8	twi	DRSC23185	4.27e5	4.02e5	8.46e5	7.31e5
9	twi	DRSC26056	3.78e5	3.83e5	7.74e5	8.52e5
10	robo1	DRSC04712	3.07e5	3.03e5	2.47e6	1.88e6
11	pygo	DRSC14322	91903	73656	3.91e5	2.53e5
12	pygo	DRSC25137	4.42e5	5.14e5	5.15e5	6.07e5
13	su(f)	DRSC20907	1.61e5	2.32e5	6.21e5	3.22e5
14	cta	DRSC03769	1.13e6	7.68e5	2.79e6	3.17e6
15	Taf9	DRSC20326	58793	1.36e5	4.54e5	5.03e5
16	Taf9	DRSC25903	3.88e5	4.01e5	7.49e5	6.51e5
17	CG11756	DRSC19424	4.76e5	4.46e5	3.36e6	3.61e6
18	CG11756	DRSC30076	9.39e5	9.19e5	1.43e6	9.90e5
19	fs(1)Yb	DRSC18777	2.21e5	3.82e5	3.17e6	3.38e6
20	mmm	DRSC10208	1.16e5	1.32e5	8.54e5	1.35e6
21	CG31233	DRSC15888	2.22e5	2.46e5	4.24e6	4.57e6
22	Sgsh	DRSC14771	2.24e5	1.35e5	2.44e6	1.87e6
23	CG32176	DRSC10057	3.30e5	2.91e5	2.12e6	2.36e6
24	CG32176	DRSC10058	2.41e5	1.27e5	2.94e6	1.44e6
